Test results published in patent US4384994A, “Renin inhibitory peptides” (Merck & Co., Inc., priority 1981, dated 1983).
Not every detail of the peptide structures is certain; ends, links or a residue may be inferred. Square brackets hold non-standard residues; d marks the D form. Peptide text beside a SMILES is read from it. Sta = CC(C)C[C@H](N)[C@@H](O)CC(=O)O

Molecular target: T1, renin (Homo sapiens, UniProt P00797)
T1 sequence (P00797 67-406): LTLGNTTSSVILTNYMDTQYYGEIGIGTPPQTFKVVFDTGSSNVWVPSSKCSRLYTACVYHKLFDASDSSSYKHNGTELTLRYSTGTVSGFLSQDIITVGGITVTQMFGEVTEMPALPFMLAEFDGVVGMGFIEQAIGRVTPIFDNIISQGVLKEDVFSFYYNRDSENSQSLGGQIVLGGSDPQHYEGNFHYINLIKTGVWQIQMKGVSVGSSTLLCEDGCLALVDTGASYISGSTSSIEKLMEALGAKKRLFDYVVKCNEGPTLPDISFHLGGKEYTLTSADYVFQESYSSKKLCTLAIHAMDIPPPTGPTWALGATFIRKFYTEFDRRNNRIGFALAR
Experiment: renin inhibitory potency of the peptides
Format: biochemical
Details: compared with the novel peptides of the invention

Question: For `CC(C)C[C@H](NC(=O)C[C@H](O)[C@@H](N)CC(C)C)C(=O)N[C@H](C(=O)N[C@@H](Cc1ccccc1)C(=O)O)C(C)C` [Sta-Leu-Val-Phe] (H-[Sta]LVF-OH), which renin inhibitory potency is on record?
Answer: The renin inhibitory potency was “considerably less renin inhibitory potency”.
